{"sequences": {"note": "Amino acid sequences for entries named in this document (tags omitted). A change or cut given only in a name is not applied to a line headed by its entry.", "UniProt P23942": "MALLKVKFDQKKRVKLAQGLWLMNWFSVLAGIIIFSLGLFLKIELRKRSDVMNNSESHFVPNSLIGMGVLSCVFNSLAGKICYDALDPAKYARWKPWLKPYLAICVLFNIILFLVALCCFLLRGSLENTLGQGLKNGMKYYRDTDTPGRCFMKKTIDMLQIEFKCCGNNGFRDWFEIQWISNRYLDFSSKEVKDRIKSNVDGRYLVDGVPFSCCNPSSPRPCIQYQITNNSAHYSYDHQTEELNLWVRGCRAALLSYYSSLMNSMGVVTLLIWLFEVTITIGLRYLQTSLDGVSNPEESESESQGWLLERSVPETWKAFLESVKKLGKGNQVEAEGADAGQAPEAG", "UniProt Q03395": "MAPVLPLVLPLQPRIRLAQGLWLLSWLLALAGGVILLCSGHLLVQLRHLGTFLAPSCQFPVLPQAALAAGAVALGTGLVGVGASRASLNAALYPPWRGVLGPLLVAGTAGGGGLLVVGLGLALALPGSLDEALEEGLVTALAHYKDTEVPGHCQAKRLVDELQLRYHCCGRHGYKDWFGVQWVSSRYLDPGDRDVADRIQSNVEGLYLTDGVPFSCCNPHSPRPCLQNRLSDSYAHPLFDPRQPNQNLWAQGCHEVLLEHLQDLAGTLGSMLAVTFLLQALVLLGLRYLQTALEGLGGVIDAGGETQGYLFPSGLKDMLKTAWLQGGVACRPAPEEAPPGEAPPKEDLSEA"}, "source": "paper PMC9645710", "about": "“Cryo-EM structures of peripherin-2 and ROM1 suggest multiple roles in photoreceptor membrane morphogenesis” (Science Advances, 2022)", "biological_target": "PRPH2-ROM1 heterodimer (wild-type PRPH2 and ROM1) (human) (UniProt P23942+Q03395)", "assay": "SEC; as a3, with dithiothreitol added; both purified", "note": "No constants are given. Whether binding was seen depends on the method and setting."}
{"substance": "PRPH2-ROM1 heterodimer (wild-type PRPH2 and ROM1) (from UniProt P23942 1-346; Q03395 1-351) (complex)", "values": [{"measurement": "binding", "result": "no binding (condition: with dithiothreitol)"}]}
